In PMC7721101:
No constants are given. Whether binding was seen depends on the method and setting. In cells and extracts the contact can be indirect. Some entries that bind do so weakly or less than the wild type.

The chains behind the UniProt entries cited, without tags or fusion partners.
UniProt O15379: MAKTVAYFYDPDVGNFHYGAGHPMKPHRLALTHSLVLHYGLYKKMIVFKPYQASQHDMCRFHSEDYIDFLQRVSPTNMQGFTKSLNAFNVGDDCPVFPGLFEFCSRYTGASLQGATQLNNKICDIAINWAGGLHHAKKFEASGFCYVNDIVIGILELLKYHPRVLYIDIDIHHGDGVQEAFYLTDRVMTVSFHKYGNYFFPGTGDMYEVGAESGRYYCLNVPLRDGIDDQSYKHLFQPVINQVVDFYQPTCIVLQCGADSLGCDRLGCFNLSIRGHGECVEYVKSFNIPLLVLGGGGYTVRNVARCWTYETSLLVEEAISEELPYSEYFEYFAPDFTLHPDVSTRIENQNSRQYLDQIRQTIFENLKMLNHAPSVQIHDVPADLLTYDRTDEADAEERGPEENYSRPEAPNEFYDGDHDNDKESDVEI
UniProt Q15910: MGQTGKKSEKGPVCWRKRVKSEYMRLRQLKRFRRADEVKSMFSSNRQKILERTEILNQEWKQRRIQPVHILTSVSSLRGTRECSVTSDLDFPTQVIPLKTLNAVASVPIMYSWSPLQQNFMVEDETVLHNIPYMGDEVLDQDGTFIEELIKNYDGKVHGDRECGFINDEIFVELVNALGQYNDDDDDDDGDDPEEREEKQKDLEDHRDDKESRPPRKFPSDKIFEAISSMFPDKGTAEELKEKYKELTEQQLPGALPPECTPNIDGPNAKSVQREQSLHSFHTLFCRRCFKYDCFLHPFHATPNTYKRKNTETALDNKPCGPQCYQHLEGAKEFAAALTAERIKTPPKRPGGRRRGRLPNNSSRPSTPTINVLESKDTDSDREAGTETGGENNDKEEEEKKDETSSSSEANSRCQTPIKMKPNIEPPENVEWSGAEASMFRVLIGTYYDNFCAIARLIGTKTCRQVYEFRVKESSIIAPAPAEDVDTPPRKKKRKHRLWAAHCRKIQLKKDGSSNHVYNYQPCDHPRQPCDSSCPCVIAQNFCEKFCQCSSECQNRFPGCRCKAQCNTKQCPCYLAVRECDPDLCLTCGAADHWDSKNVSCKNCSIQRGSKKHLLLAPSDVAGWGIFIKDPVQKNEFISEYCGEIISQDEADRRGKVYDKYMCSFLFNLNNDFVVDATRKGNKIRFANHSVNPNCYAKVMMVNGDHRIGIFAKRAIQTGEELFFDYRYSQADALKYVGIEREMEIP
UniProt P08047: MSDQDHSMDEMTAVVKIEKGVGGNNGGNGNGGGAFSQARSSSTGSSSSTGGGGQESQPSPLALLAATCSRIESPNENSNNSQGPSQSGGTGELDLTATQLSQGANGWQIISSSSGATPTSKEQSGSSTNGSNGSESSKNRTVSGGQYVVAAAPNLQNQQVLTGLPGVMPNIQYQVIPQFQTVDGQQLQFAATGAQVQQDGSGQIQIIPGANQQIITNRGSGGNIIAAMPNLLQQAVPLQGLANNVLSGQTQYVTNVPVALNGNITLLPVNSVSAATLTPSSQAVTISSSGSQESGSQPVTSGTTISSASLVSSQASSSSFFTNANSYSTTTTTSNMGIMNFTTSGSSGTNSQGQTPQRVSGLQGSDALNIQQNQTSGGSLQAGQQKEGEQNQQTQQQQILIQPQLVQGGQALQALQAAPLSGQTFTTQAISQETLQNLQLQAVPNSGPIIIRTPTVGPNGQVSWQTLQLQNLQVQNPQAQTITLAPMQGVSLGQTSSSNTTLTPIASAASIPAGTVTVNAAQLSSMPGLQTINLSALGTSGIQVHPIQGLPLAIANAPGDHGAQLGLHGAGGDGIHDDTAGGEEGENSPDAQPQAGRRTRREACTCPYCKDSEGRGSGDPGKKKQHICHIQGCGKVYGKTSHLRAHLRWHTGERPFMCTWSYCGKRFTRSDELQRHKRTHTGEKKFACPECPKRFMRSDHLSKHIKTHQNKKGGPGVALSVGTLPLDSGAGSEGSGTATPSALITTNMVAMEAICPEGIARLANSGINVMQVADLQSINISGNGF

Columns and labels:
[1] = molecular target: HDAC3 (human (endogenous; cell line not named, all cell lines of the paper are human)) (UniProt O15379); assay: co-IP; cell lysates (cell line not stated; NP-40) immunoprecipitated with anti-Sp1 or anti-HDAC3 (control IgG), overnight at 4 °C, protein A/G; Western blot for EZH2, HDAC3, Sp1
[2] = molecular target: EZH2 (human (endogenous in 293T)) (UniProt Q15910); assay: co-IP; 293T cells transfected with HA-HDAC3; whole cell lysate (NP-40) immunoprecipitated with anti-HA or anti-EZH2 (control IgG), overnight at 4 °C, protein A/G; Western blot for HA, Sp1, EZH2, HDAC3
[3] = molecular target: HA-tagged full-length HDAC3 (UniProt O15379); assay: as above
[4] = molecular target: Sp1 (human (endogenous in 293T)) (UniProt P08047); assay: co-IP; cell lysates (cell line not stated; NP-40) immunoprecipitated with anti-Sp1 or anti-HDAC3 (control IgG), overnight at 4 °C, protein A/G; Western blot for EZH2, HDAC3, Sp1

Sp1 (from UniProt P08047 1-785) was tested, and the binding [1] was “binds”, the binding [2] was “binds” and the binding [3] was “binds”.
With “HA-tagged full-length HDAC3 (from UniProt O15379 1-428)” the binding [2] was “binds”.
With HDAC3 (from UniProt O15379 1-428) the binding [4] was “binds”.
